Results taken from publication doi:10.1101/2025.05.27.656397, “A new heme enzyme family forms hydrazine groups in diverse biosynthetic pathways” (bioRxiv, 2025).
No constants are given. Whether binding was seen depends on the method and setting. For part of these data: In cells and extracts the contact can be indirect. Some binding calls cover weakened binding; strength is not graded here. Tags and fused reporters may be left off the sequences shown.

How the values were obtained:
[1] = biological target: T1, C-terminally His6-tagged KinI (ferredoxin) (S. murayamaensis); test: pull-down; proteins co-expressed in E. coli, His6 tag on one partner at the N- or C-terminus, expressed aerobically, purified anaerobically; partner found in the affinity-purified material
T1 sequence: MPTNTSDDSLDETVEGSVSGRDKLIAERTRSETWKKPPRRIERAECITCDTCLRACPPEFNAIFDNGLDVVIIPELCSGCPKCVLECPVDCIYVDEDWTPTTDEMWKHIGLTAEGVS

[2] = biological target: T2, N-terminally His6-tagged KinI (ferredoxin) (S. murayamaensis); test: as above
T2 sequence: T1 sequence

[3] = biological target: T3, His6-KinJ (N-terminal His6 tag), co-expressed with KinI (Streptomyces murayamaensis ATCC 21414); test: as above
T3 sequence: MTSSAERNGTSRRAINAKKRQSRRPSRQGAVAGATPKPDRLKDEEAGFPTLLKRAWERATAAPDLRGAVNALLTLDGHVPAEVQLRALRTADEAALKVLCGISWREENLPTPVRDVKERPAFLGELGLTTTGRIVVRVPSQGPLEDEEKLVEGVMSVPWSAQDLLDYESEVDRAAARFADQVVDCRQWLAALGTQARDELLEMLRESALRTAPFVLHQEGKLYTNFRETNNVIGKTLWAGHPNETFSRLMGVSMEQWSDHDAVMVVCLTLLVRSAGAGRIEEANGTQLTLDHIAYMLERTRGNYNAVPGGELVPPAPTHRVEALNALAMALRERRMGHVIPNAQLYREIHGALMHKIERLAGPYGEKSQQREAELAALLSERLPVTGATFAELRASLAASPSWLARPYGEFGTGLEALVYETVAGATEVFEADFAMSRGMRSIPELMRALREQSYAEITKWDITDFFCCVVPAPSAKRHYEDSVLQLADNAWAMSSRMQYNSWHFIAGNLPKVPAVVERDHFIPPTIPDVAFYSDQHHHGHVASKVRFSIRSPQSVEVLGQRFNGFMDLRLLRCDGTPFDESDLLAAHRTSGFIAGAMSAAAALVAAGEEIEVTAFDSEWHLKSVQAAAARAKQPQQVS

[4] = biological target: T4, KinJ with C-terminal His6 tag, co-expressed with KinI (Streptomyces murayamaensis ATCC 21414); test: as above
T4 sequence: T3 sequence

[5] = biological target: T5, KinJ from Streptomyces murayamaensis ATCC 21414 (tag placement not stated for the experiment) (Streptomyces murayamaensis ATCC 21414); test: SEC; anaerobic size exclusion chromatography of proteins expressed alone or co-expressed and purified; both purified
T5 sequence: T3 sequence

B1: KinJ from Streptomyces murayamaensis ATCC 21414, co-expressed with His6-tagged KinI (prey of the pull-down) (enzyme, UniProt A0A385LMJ2 1-639)
chain: T3 sequence
[1]
  binding: binds
[2]
  binding: binds

B2: KinI (ferredoxin), co-expressed with His6-tagged KinJ (prey of the pull-down) (protein, UniProt A0A385LT12 1-117)
chain: T1 sequence
[3]
  binding: binds
[4]
  binding: binds

B3: KinI (ferredoxin; tag placement not stated for the experiment) (protein)
chain: T1 sequence
[5]
  binding: binds

B4: KinJ from Streptomyces murayamaensis ATCC 21414 (tag placement not stated for the experiment) (enzyme, UniProt A0A385LMJ2 1-639)
chain: T3 sequence
[5]
  binding: no binding
